Experimental data: publication PMC7279049
No constants are given. Whether binding was seen depends on the method and setting. Binding seen in cells or lysates may run through a third protein. These calls come from enrichment with a bait or labelling near it, and not all partners need be listed. Sequences can lack the tags named with a protein.

Protein sequences, listed by entry. Tags and fused reporters are not part of them. Residues count along the entry.
UniProt Q9UBS4, residues 23-358: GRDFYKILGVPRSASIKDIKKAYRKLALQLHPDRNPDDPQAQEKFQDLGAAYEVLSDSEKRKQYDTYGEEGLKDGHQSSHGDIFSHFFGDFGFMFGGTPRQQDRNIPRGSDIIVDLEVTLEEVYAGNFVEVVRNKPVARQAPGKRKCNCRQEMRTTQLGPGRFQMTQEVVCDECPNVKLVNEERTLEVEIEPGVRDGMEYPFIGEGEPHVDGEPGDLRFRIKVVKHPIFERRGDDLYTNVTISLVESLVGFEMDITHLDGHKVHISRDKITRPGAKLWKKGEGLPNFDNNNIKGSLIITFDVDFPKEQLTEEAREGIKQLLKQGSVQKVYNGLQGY
UniProt Q9NYU2, residues 43-1555: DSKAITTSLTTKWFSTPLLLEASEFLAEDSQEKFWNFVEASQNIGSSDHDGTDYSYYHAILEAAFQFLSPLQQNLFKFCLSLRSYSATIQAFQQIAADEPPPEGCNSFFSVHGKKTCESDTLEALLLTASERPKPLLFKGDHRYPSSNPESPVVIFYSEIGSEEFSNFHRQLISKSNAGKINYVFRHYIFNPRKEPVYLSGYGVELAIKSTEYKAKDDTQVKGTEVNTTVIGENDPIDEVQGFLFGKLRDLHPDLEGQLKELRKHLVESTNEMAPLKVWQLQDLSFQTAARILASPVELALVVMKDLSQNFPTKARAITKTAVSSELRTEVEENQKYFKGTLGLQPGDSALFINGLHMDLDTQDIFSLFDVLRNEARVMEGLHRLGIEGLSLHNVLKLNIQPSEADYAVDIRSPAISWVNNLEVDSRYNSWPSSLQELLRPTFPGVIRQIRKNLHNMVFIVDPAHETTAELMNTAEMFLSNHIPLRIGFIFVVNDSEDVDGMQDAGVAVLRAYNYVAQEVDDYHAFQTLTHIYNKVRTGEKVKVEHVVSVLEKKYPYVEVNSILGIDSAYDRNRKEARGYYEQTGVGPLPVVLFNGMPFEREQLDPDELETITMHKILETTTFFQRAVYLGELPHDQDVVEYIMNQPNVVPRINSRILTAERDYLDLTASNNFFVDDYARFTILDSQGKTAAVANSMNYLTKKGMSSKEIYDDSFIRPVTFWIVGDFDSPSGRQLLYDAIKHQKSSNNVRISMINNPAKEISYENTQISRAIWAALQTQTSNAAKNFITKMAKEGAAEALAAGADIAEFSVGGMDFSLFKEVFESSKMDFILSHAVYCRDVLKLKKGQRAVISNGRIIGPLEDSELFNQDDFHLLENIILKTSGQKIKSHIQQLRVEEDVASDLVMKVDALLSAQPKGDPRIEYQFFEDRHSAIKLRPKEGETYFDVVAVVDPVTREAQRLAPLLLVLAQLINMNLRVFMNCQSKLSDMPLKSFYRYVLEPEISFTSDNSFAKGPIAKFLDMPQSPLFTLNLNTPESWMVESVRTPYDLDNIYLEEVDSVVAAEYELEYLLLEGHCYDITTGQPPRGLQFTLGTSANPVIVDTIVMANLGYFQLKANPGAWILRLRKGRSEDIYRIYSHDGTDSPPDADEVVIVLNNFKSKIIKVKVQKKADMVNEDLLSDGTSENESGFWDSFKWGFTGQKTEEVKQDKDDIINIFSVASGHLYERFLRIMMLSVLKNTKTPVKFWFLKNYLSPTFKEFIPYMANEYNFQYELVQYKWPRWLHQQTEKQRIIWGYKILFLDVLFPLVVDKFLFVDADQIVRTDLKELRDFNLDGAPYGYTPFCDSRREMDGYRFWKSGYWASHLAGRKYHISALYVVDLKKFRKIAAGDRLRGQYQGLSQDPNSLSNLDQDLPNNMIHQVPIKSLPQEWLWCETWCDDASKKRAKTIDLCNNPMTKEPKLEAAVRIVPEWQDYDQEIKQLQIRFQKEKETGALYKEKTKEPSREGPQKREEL
UniProt P27824, residues 21-592: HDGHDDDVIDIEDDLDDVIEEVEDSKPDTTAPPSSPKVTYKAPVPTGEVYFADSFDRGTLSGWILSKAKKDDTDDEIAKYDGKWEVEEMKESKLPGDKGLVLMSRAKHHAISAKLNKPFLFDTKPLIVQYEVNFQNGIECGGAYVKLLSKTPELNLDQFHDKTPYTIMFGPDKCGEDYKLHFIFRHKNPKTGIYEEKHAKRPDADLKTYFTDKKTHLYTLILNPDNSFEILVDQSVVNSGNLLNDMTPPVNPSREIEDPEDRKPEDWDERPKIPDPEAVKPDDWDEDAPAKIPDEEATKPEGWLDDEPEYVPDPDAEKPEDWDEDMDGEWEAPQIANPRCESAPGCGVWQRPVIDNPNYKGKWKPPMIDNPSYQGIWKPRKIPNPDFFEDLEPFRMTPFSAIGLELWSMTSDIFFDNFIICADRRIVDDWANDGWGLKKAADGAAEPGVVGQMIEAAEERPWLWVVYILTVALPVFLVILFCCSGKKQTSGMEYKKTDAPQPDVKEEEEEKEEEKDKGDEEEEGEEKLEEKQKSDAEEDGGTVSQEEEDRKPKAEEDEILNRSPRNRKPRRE
UniProt P62333: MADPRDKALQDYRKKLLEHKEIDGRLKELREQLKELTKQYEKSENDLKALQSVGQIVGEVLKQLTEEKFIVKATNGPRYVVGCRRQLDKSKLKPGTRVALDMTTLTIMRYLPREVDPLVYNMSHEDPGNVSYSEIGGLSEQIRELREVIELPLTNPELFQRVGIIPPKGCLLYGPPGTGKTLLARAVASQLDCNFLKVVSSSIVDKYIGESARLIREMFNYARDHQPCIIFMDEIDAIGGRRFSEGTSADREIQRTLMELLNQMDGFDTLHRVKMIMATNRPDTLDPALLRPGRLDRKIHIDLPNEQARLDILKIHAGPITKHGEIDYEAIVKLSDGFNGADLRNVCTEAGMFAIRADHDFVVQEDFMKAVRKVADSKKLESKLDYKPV

T1: ER-degradation enhancing α-mannosidase-like (EDEM1) (UniProt Q92611)
T1 sequence: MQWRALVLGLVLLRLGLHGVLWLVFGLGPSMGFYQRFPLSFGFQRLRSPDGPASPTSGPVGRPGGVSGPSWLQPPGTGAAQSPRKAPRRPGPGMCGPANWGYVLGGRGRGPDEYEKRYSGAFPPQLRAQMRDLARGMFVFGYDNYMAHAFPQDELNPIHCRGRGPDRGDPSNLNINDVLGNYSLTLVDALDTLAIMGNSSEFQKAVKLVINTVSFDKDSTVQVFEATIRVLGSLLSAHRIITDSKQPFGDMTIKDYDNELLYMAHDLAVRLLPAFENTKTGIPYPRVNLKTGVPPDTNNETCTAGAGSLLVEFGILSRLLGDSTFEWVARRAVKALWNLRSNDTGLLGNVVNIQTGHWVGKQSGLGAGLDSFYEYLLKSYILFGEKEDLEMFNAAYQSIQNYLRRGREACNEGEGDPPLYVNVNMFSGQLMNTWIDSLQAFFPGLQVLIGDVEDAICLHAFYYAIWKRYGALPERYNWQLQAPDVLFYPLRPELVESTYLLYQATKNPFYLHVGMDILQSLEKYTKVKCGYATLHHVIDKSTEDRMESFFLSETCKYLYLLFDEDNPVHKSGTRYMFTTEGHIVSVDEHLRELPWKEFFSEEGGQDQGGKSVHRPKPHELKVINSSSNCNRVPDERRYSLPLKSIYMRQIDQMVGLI


The molecules below were run against T1, ER-degradation enhancing α-mannosidase-like (EDEM1) (assay: affinity purification with mass spectrometry; HEK293T overexpressing EDEM1 or an empty vector, lysed in 1% Triton X-100 buffer; immunoprecipitation with anti-EDEM1 antibodies, SDS-PAGE, in-gel digestion, LC-MS/MS; LFQ values of three biological replicates, t-test with permutation-based FDR, hierarchical clustering of GO-selected proteins (Figure 1A,B)).

Molecule | binding
calreticulin (from UniProt P27797 18-417) | binds
DNAJB11 (from UniProt Q9UBS4 23-358) | binds
ERp44 (protein, UniProt Q9BS26 30-406) EITSLDTENIDEILNNADVALVNFYADWCRFSQMLHPIFEEASDVIKEEFPNENQVVFARVDCDQHSDIAQRYRISKYPTLKLFRNGMMMKREYRGQRSVKALADYIRQQKSDPIQEIRDLAEITTLDRSKRNIIGYFEQKDSDNYRVFERVANILHDDCAFLSAFGDVSKPERYSGDNIIYKPPGHSAPDMVYLGAMTNFDVTYNWIQDKCVPLVREITFENGEELTEEGLPFLILFHMKEDTESLEIFQNEVARQLISEKGTINFLHADCDKFRHPLLHIQKTPADCPVIAIDSFRHMYVFGDFKDVLIPGKLKQFVFDLHSGKLHREFHHGPDPTDTAPGEQAQDVASSPPESSFQKLAPSEYRYTLLRDRDEL | binds
UDP-Glucose, glycoprotein glucosyltransferase UGGT2 (protein, UniProt Q9NYU1 28-1516) TVAASKSVTAHLAAKWPETPLLLEASEFMAEESNEKFWQFLETVQELAIYKQTESDYSYYNLILKKAGQFLDNLHINLLKFAFSIRAYSPAIQMFQQIAADEPPPDGCNAFVVIHKKHTCKINEIKKLLKKAASRTRPYLFKGDHKFPTNKENLPVVILYAEMGTRTFSAFHKVLSEKAQNEEILYVLRHYIQKPSSRKMYLSGYGVELAIKSTEYKALDDTQVKTVTNTTVEDETETNEVQGFLFGKLKEIYSDLRDNLTAFQKYLIESNKQMMPLKVWELQDLSFQAASQIMSAPVYDSIKLMKDISQNFPIKARSLTRIAVNQHMREEIKENQKDLQVRFKIQPGDARLFINGLRVDMDVYDAFSILDMLKLEGKMMNGLRNLGINGEDMSKFLKLNSHIWEYTYVLDIRHSSIMWINDLENDDLYITWPTSCQKLLKPVFPGSVPSIRRNFHNLVLFIDPAQEYTLDFIKLADVFYSHEVPLRIGFVFILNTDDEVDGANDAGVALWRAFNYIAEEFDISEAFISIVHMYQKVKKDQNILTVDNVKSVLQNTFPHANIWDILGIHSKYDEERKAGASFYKMTGLGPLPQALYNGEPFKHEEMNIKELKMAVLQRMMDASVYLQREVFLGTLNDRTNAIDFLMDRNNVVPRINTLILRTNQQYLNLISTSVTADVEDFSTFFFLDSQDKSAVIAKNMYYLTQDDESIISAVTLWIIADFDKPSGRKLLFNALKHMKTSVHSRLGIIYNPTSKINEENTAISRGILAAFLTQKNMFLRSFLGQLAKEEIATAIYSGDKIKTFLIEGMDKNAFEKKYNTVGVNIFRTHQLFCQDVLKLRPGEMGIVSNGRFLGPLDEDFYAEDFYLLEKITFSNLGEKIKGIVENMGINANNMSDFIMKVDALMSSVPKRASRYDVTFLRENHSVIKTNPQENDMFFNVIAIVDPLTREAQKMAQLLVVLGKIINMKIKLFMNCRGRLSEAPLESFYRFVLEPELMSGANDVSSLGPVAKFLDIPESPLLILNMITPEGWLVETVHSNCDLDNIHLKDTEKTVTAEYELEYLLLEGQCFDKVTEQPPRGLQFTLGTKNKPAVVDTIVMAHHGYFQLKANPGAWILRLHQGKSEDIYQIVGHEGTDSQADLEDIIVVLNSFKSKILKVKVKKETDKIKEDILTDEDEKTKGLWDSIKSFTVSLHKENKKEKDVLNIFSVASGHLYERFLRIMMLSVLRNTKTPVKFWLLKNYLSPTFKEVIPHMAKEYGFRYELVQYRWPRWLRQQTERQRIIWGYKILFLDVLFPLAVDKIIFVDADQIVRHDLKELRDFDLDGAPYGYTPFCDSRREMDGYRFWKTGYWASHLLRRKYHISALYVVDLKKFRRIGAGDRLRSQYQALSQDPNSLSNLDQDLPNNMIYQVAIKSLPQDWLWCETWCDDESKQRAKTIDLCNNPKTKESKLKAAARIVPEWVEYDAEIRQLLDHLENKKQDTILTHDEL | binds

Continued, values first:

binding | Molecule
binds | UDP-Glucose, glycoprotein glucosyltransferase UGGT1 (from UniProt Q9NYU2 43-1555)
binds | calnexin (from UniProt P27824 21-592)
binds | PSMC6 (from UniProt P62333 1-389)
